In PubChem BioAssay AID651789 (National Center for Advancing Translational Sciences (NCATS), 2012):
Inconclusive means that the source gave no clear call. Such entries were picked first, then a sample of the others. Potencies beside an inconclusive call are fits to weak or partial responses and may not hold up. Calls of active or inactive are those of the source. Calls follow the shape of the dose curve; as a rule, active = well fitted inhibition curve with a large enough effect; inconclusive = small, poorly fitted or top-dose-only effect; inactive = no such curve, though single readings can be large or run the other way.

Test: Acumen qHTS Assay for Inhibitors of the mTORC1 Signaling Pathway in WT MEF Cells: Hit Validation; also: nearly all actives have a fitted effect of over 60% in size
Conditions: Acumen imaging; series mostly up to 37.3 µM
Outline: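 Read-out is immunofluorescent phospho-rpS6 (Ser235/236) normalised to PI-stained cell number, reported as % active cells using a 7.5 nM rapamycin threshold. Cells: WT or Tsc2-/-, p53-/- MEFs, compound-exposed 24 h at 37C; PI count also tracks viability.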
Potency is read from the fitted curve at half-maximal effect.

| Structure (SMILES) | Potency |
| --- | --- |
| CN1CCN(C2(CNC(=O)c3ccc(C(C)(C)C)cc3)CCCCC2)CC1 | inactive |
| Cc1ccc(CN(Cc2cccn2-c2nnc(N3CCCC3=O)s2)C(=O)Nc2ccccc2C(F)(F)F)cc1 | inconclusive: 5.21 µM [inhibitor, single point] |
| Cc1ccc(-c2nn(C)c(=O)c3ccccc23)cc1S(=O)(=O)NCCCN(C)C | inactive |
| CC1CCCN(CCCNC(=O)c2cc3c(Cl)nc4ccccc4c3s2)C1 (configuration not stated) | inconclusive: 23.3 µM [inhibitor, single point] |
| O=C(Nc1ccc2oc(-c3ccc4ccccc4c3)nc2c1)c1cc(Br)ccc1Cl | active: 13.1 µM |
| Cc1ccc(S(=O)(=O)c2nc(-c3cccs3)oc2SCC(=O)Nc2cc(C)cc(C)c2)cc1 | inconclusive: 16.5 µM [inhibitor, single point] |
| O=C(Cn1c(=O)c2cccn2c2ccccc21)NCc1ccccc1F | inactive |
| COc1cc2nc(Nc3ccc(C)c(C)c3)nc(N)c2cc1OC | inconclusive: 4.65 µM [inhibitor, full curve] |
| CCn1c(=N)n(CCOc2ccc(Br)cc2)c2ccccc21 | inconclusive: 13.1 µM [inhibitor, single point] |
| COc1ccc(N2CCN(C(=O)C(C)n3nc(C)c4sc5ccccc5c4c3=O)CC2)cc1 (configuration not stated) | inactive |
| CN(C)c1ccc(NC(=O)Cn2cc(S(=O)(=O)Cc3ccccc3Cl)c3ccccc32)cc1 | active: 13.1 µM |
| COC(=O)c1cccc(-n2c(CCC(=O)O)ccc2-c2ccc(OC)cc2)c1 | inconclusive: 13.1 µM [inhibitor, single point] |

Retrieved one by one from the entries so far (2):

| Structure (SMILES) | Potency |
| --- | --- |
| CN1CCN(C2(CNC(=O)c3ccc(C(C)(C)C)cc3)CCCCC2)CC1 | inactive |
| CC1CCCN(CCCNC(=O)c2cc3c(Cl)nc4ccccc4c3s2)C1 (configuration not stated) | inconclusive: 23.3 µM [inhibitor, single point] |
